PubChem BioAssay AID2685 (National Center for Advancing Translational Sciences (NCATS), 2010)
Some of the results follow. The main result of the screen is listed elsewhere. These columns were measured beside it and carry no call. Compounds called inactive in the main read-out are mostly missing here. Words in brackets tell the shape of the fitted curve; partial curves, single points and poor fits give uncertain potencies.

Assay: qHTS Assay for Lipid Storage Modulators in Drosophila S3 Cells;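 on cell number change: cells counted by Cell Tracker Red CMTPX staining in the red channel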
Conditions: BODIPY lipid droplet fluorescence, 18-24 h; for cell number change: measured here: cell count max response, cells fed with added oleic acid
Summary of the method: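 Drosophila S3 cells loaded with oleic acid (400 uM, as added) and compounds at several concentrations; lipid droplets imaged by 488-nm laser-scanning cytometry, 500–530 nm intensity and object ratio to cell channel. Percent activity normalized to 20 uM Triacsin C.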

[1] = measured here: cell number channel AC50, cells fed with added oleic acid
[2] = measured here: lipid fluorescence (Fed channel) AC50, cells fed with added oleic acid

## Cc1cccc(C(C)C)c1NC(=O)COC(=O)C1CC(=O)N(Cc2ccccc2)C1 (stereo not drawn)
  cell number change: 17.6%

## O=C(c1cc(COc2cccc(C(F)(F)F)c2)on1)N1CCC(c2ccccc2)CC1
  cell number change: 25.7%

## O=C(CSc1ccc2nnc(-c3cccnc3)n2n1)NCc1ccco1
  cell number change: 0.826%

## Cc1cc(=O)oc2cc(OCC(=O)OCC(=O)NCCc3ccccc3)ccc12
  cell number change: -30.6%
[1]
  AC50: 0.082 µM [falling, full curve]
[2]
  AC50: 29.1 µM [falling, single point]

## O=C(Nc1ccccc1C(=O)O)c1cc(S(=O)(=O)N2CCCCCC2)ccc1Cl
  cell number change: -1.25%

## CCOc1ccccc1NC(=O)CN1CCC(C(=O)c2ccc(F)cc2)CC1
  cell number change: 29.1%

## O=C(CCn1cccc1)Nc1cc(F)ccc1F
  cell number change: -32.3%
[1]
  AC50: 2.91 µM [falling, full curve]
[2]
  AC50: 29.1 µM [falling, single point]

## O=C(Cc1nc2ccccc2[nH]1)c1ccc(Br)cc1
  cell number change: 18%
[1]
  AC50: 4.11 µM [rising, single point]
[2]
  AC50: 6.51 µM [rising, single point]

## O=C(NCCN1CCCCC1)c1cc(Cl)ccc1Cl
  cell number change: 26%
[2]
  AC50: 6.51 µM [rising, single point]

## CC(=O)Nc1ccc(-c2cc(-c3ccccc3)nc(-c3ccccc3)n2)cc1
  cell number change: -10.5%
[2]
  AC50: 6.51 µM [falling, full curve, poor fit]

## COc1ccc(C2Nc3ccccc3C(=O)N2NC(C)=O)c(OC)c1 (stereo not drawn)
  cell number change: 7.8%
[2]
  AC50: 0.116 µM [rising, full curve, poor fit]

## C=CCn1cc([N+](=O)[O-])nc1C
  cell number change: -22.6%
[1]
  AC50: 0.259 µM [falling, partial curve, poor fit]
[2]
  AC50: 1.64 µM [falling, partial curve, poor fit]

## Cc1ccc(C(=O)NCC(=O)NCCCc2ccccc2)s1
  cell number change: -2.7%
[2]
  AC50: 18.4 µM [rising, partial curve]

## O=C(CN(CC1CCCO1)C(=O)Cn1nnc(-c2ccc(F)cc2)n1)NC1CCCCC1 (stereo not drawn)
  cell number change: 39.7%
[1]
  AC50: 9.2 µM [rising, partial curve, poor fit]
[2]
  AC50: 16.4 µM [rising, partial curve, poor fit]

## COc1ccc(Cl)cc1NC(=O)CCc1ccccc1
  cell number change: 59.5%
[1]
  AC50: 0.731 µM [rising, partial curve, poor fit]
[2]
  AC50: 0.13 µM [rising, full curve, poor fit]

## O=C(CCC1CCCCC1=O)c1ccccc1 (stereo not drawn)
  cell number change: 9.52%

## COC(=O)c1ccc(N=Cc2c(C(F)(F)F)[nH]n(C)c2=O)cc1
  cell number change: 2.05%
[1]
  AC50: 6.51 µM [rising, single point]
[2]
  AC50: 6.51 µM [rising, single point]

## COc1cc2nc3occc3c(OC)c2cc1OC
  cell number change: 20.6%
[2]
  AC50: 0.0366 µM [rising, full curve, poor fit]

## CCn1cc(C(=O)O)c(=O)c2cc(OC)ccc21
  cell number change: 39%
[1]
  AC50: 14.6 µM [rising, single point]

## CCOC(=O)c1cccc(NS(=O)(=O)c2c(C(=O)N3CCCCCC3)c(C)n(C)c2C)c1
[2]
  AC50: 10.3 µM [falling, partial curve]

## COc1ccccc1-n1c(C)nc2cc(C(=O)NCCN3CCOCC3)ccc21
  cell number change: 40.4%
[1]
  AC50: 20.6 µM [rising, single point]
[2]
  AC50: 8.2 µM [rising, partial curve, poor fit]

## CCCCn1c(N)c(N(CC(C)C)C(=O)c2cc(S(=O)(=O)N3CCOCC3)ccc2Cl)c(=O)[nH]c1=O
  cell number change: 39.6%
[1]
  AC50: 16.4 µM [rising, single point]

## Oc1ccc(Cn2ccnc2)c2cccnc12
  cell number change: -31.2%
[2]
  AC50: 32.6 µM [falling, single point]

## Cc1ccc(NC(=O)[C@@H](NC(=O)c2cccc(S(=O)(=O)N3CCOCC3)c2)C(C)C)cc1C
  cell number change: 22.9%
[2]
  AC50: 7.31 µM [falling, single point]

## CCOc1ccc(-c2nc(CSCC(=O)N3CCN(C(=O)c4ccco4)CC3)c(C)o2)cc1
  cell number change: -8.8%
[2]
  AC50: 0.00411 µM [rising, full curve, poor fit]

## COc1ccc(C(=O)NCCN2CCOCC2)cc1S(=O)(=O)Nc1ccc(C)cc1
  cell number change: 11.3%

## COc1cccc(C(=O)N(C)C(C)c2nc3ccccc3s2)c1 (stereo not drawn)
  cell number change: 3.33%
[2]
  AC50: 0.116 µM [rising, full curve, poor fit]

## O=C(Nc1cccc(C(F)(F)F)c1)c1ccccc1NC(=O)C1CCCCC1
  cell number change: -9.1%
[2]
  AC50: 18.4 µM [falling, single point]

## O=C(CN1CCOCC1)N1c2ccccc2Sc2ccccc21
  cell number change: 18.1%
[1]
  AC50: 0.58 µM [rising, full curve, poor fit]

## Cc1ccc(S(=O)(=O)CC(=O)NC2CC2)cc1
  cell number change: -43.7%
[1]
  AC50: 32.6 µM [falling, single point]
[2]
  AC50: 29.1 µM [falling, partial curve]

## Cc1cccc(NC(=O)c2ccc(Cl)c(S(=O)(=O)N3CCCCCC3)c2)n1
  cell number change: 8.33%
[2]
  AC50: 2.31 µM [rising, partial curve]

## O=C(CCCCC(=O)NCc1cccs1)NCc1cccs1
[2]
  AC50: 23.1 µM [falling, partial curve]

## COc1ccc(NC(=O)c2nnn(Cc3cccc(F)c3)c2N)c(OC)c1
  cell number change: 17%
[2]
  AC50: 0.13 µM [rising, full curve, poor fit]

## COc1ccccc1Nc1nc(-c2ccccc2)nc2ccccc12
  cell number change: 8.29%
[2]
  AC50: 7.31 µM [rising, partial curve, poor fit]

## CN(C)C/C=C/C(O)(c1ccccc1)c1ccccc1
  cell number change: -33.9%

## Cc1ccc(S(=O)(=O)N2CCCC(C(=O)NCc3ccccc3F)C2)cc1 (stereo not drawn)
  cell number change: -1.32%

## O=C(NCc1ccccc1)c1ccc(CS(=O)(=O)c2ccc(Br)cc2)o1
  cell number change: 1.21%
[2]
  AC50: 29.1 µM [rising, single point]

## O=C(C1CCN(S(=O)(=O)c2ccc(Cl)c(C(F)(F)F)c2)CC1)N1CCC1
  cell number change: -15.1%
[2]
  AC50: 29.1 µM [falling, single point]

## Cc1cccc(NC(=O)Cn2ccn(-c3ccc4c(c3)OCCO4)c(=O)c2=O)c1
[2]
  AC50: 6.51 µM [falling, single point]

## O=C(COC(=O)c1ccc(S(=O)(=O)NCc2ccco2)cc1)Nc1ncc(Cl)cc1Cl
  cell number change: 2.45%
[1]
  AC50: 0.116 µM [falling, full curve]

## O=C(c1cc2ccccn2n1)N1CCCC1
  cell number change: -10%
[1]
  AC50: 1.16 µM [falling, partial curve, poor fit]
[2]
  AC50: 0.461 µM [falling, partial curve]

## COc1ccc2nc(NNC(=O)c3cc(=O)c4ccccc4o3)sc2c1
[2]
  AC50: 5.8 µM [falling, full curve]

## COC(=O)c1cccc(NC(=O)CC2C(=O)NCCN2C(=O)Nc2ccccc2)c1 (stereo not drawn)
[2]
  AC50: 16.4 µM [rising, partial curve, poor fit]

## CNCc1cc(Br)c(OCC(=O)Nc2ccccc2OC)c(OC)c1
  cell number change: -77.5%
[1]
  AC50: 1.16 µM [falling, full curve, poor fit]
[2]
  AC50: 16.4 µM [falling, partial curve]

## COC(=O)c1sc2nc(CSc3nc4ccc(C)cc4[nH]3)[nH]c(=O)c2c1C
  cell number change: 36.8%
[1]
  AC50: 29.1 µM [rising, single point]

## COc1ccccc1NC(=S)NNC(=O)c1cc(C)nn1C
  cell number change: 18.4%
[1]
  AC50: 6.51 µM [rising, single point]
[2]
  AC50: 6.51 µM [rising, single point]

## Cc1ccc(NC(=O)CSc2ccc(-c3ccccn3)nn2)c(C)c1
[2]
  AC50: 6.51 µM [rising, partial curve, poor fit]

## CCCCC(=O)Nc1cc2nn(-c3ccc(OC)cc3)nc2cc1C
[1]
  AC50: 0.411 µM [rising, full curve, poor fit]
[2]
  AC50: 2.91 µM [rising, single point]

## O=C(Nc1ccccc1C(=O)O)c1ccccc1
  cell number change: -1.11%
[2]
  AC50: 0.411 µM [falling, full curve, poor fit]

## Cc1nc(-c2ccc(Cl)cc2)sc1C1(C)CC(c2cccc([N+](=O)[O-])c2)=NO1 (stereo not drawn)
  cell number change: 4.03%
[2]
  AC50: 2.06 µM [rising, full curve]

## Cc1ccc(-c2nc(NCc3ccco3)c3ccccc3n2)cc1
  cell number change: -23.7%
[2]
  AC50: 1.64 µM [falling, partial curve]

## O=C(c1cc2ccccc2o1)N1CCN(Cc2ccccc2)CC1
  cell number change: 92%
[1]
  AC50: 29.1 µM [rising, partial curve, poor fit]
[2]
  AC50: 1.46 µM [rising, full curve]

## CCCCn1c(N)c(N(CC(C)C)C(=O)Cn2c(=O)cnc3ccccc32)c(=O)[nH]c1=O
  cell number change: -0.5%

## C[C@]12CC[C@@H]3c4ccc(OS(=O)(=O)O)cc4CC[C@H]3[C@@H]1CCC2=O
  cell number change: -29.6%
[2]
  AC50: 32.6 µM [falling, partial curve, poor fit]

## CCOC(=O)N1CCN(S(=O)(=O)c2ccc(F)c(C(=O)Nc3cccc(C)c3C)c2)CC1
  cell number change: -1.15%
[2]
  AC50: 0.731 µM [falling, single point]

## C/C=C/C=C\C(=O)Nc1cccc(C2=NOC3(C2)C[C@@H](C(N)=O)N(C(=O)/C(C)=C/C)C3)c1 (stereo partly drawn)
  cell number change: 22.3%
[2]
  AC50: 16.4 µM [rising, single point]

## O=C1NC(=O)/C(=C\c2cn(CC(=O)N3CCOCC3)c3ccccc23)S1
  cell number change: 0.952%

## CC(CCc1ccc(O)cc1)N1CCC(Oc2ccc(C(=O)N3CCCC3)cc2)CC1 (stereo not drawn)
  cell number change: 24.4%
[1]
  AC50: 0.082 µM [rising, full curve, poor fit]
[2]
  AC50: 20.6 µM [rising, partial curve]
